Experimental data taken from PubChem BioAssay AID1487 (National Center for Advancing Translational Sciences (NCATS), 2009).
The list shows a part of the results. These are further read-outs of the screen, such as a control signal, another cell line or another target. No call is given for them. Compounds called inactive in the main read-out are mostly missing here. Words in brackets tell the shape of the fitted curve; partial curves, single points and poor fits give uncertain potencies.

Experiment: qHTS Assay for Modulators of Lamin A Splicing
Conditions: HeLa LMNA splicing GFP/RFP minigene ratio, 48 h
Procedure, shortened: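 S3 HeLa cells stably expressing lamin A-EGFP splicing minigene plus DsRed2, 600 cells/well, 48 h compound exposure at 37C. Laser-scanning cytometry; analysed as GFP (500-530 nm)/RFP (575-640 nm) total intensity ratio; 0.5% DMSO vehicle.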

[1] = measured here: RFP viability control channel
[2] = measured here: GFP splicing reporter channel

Structure (SMILES) | AC50 [1] | AC50 [2]
COc1cccc(CN2CCNC(=O)C2CC(=O)NCCn2cccn2)c1OC (stereo not given) | 0.01 µM [falling, full curve, poor fit] | –
CCn1c(NCc2ccc(N(C)C)cc2)nc2ccccc21 | 35.5 µM [rising, single point] | –
O=C(O)/C=C/C(=O)NCc1ccccc1 | 20 µM [falling, partial curve, poor fit] | –
COc1ccccc1Nc1nc(-c2sc(NC(=O)C(C)(C)C)nc2C)cs1 | 22.4 µM [rising, partial curve] | –
CSc1cccc(NC(=O)C(c2ccccc2)N2Cc3ccccc3C2=O)c1 (stereo not given) | 35.5 µM [falling, partial curve, poor fit] | 20 µM [falling, partial curve, poor fit]
Cc1ccc(NC(=O)CSc2nc3ccc(NC(=O)c4ccco4)cc3s2)c(C)c1 | 35.5 µM [falling, partial curve, poor fit] | 14.1 µM [falling, partial curve, poor fit]
COc1ccc([N+](=O)[O-])cc1NC(=O)c1ccc(CN(c2ccccc2)S(C)(=O)=O)cc1 | 0.0355 µM [falling, full curve, poor fit] | –
Cc1[nH]nc2c1C(c1cn[nH]c1-c1ccc(F)cc1)C(C#N)=C(N)O2 (stereo not given) | 14.1 µM [rising, partial curve, poor fit] | 14.1 µM [rising, single point]
O=C(c1ccc(Cl)cc1)N1CCC(O)(CSc2ccccc2)CC1 | 17.8 µM [rising, single point] | –
Cc1cc(SCC(=O)N/N=C/c2ccc(O)cc2O)c(C)cc1Br | 12.6 µM [rising, partial curve] | –
O=S(=O)(Nc1ccc(N2CCCCC2)cc1)c1ccccc1 | 35.5 µM [rising, single point] | –
O=C(COc1cccc2ccccc12)NNC(=O)Nc1ccccc1 | 12.6 µM [falling, partial curve] | 22.4 µM [falling, single point]
CC(C)Cc1cc(C(=O)N2CCN(C(c3ccccc3)c3ccccc3)CC2)no1 | 35.5 µM [rising, single point] | –
COc1cc(C(=O)O/N=C2\C=CC(=O)C(C)=C2)cc(OC)c1OC | 14.1 µM [falling, partial curve] | 12.6 µM [falling, partial curve]
CCCOC(=O)c1ccc(NS(=O)(=O)c2cccs2)cc1 | 17.8 µM [rising, single point] | –
COCCN1C(=O)N[C@@H](c2ccc(Br)cc2)C(C(C)=O)=C1C | – | 5.62 µM [falling, single point]
CCCOc1cccc(-c2nc3ccccc3c(=O)o2)c1 | – | 35.5 µM [falling, single point]
O=C1CC(N2CCSCC2)C(=O)N1c1ccccc1 (stereo not given) | – | 5.62 µM [rising, single point]
CN1/C(=C\C(=S)NC(=O)c2ccccc2Cl)C(C)(C)c2ccccc21 | 25.1 µM [rising, single point] | 11.2 µM [rising, single point]

By substructure: the compounds so far with bromine (two)
Structure (SMILES) | AC50 [1] | AC50 [2]
Cc1cc(SCC(=O)N/N=C/c2ccc(O)cc2O)c(C)cc1Br | 12.6 µM [rising, partial curve] | –
COCCN1C(=O)N[C@@H](c2ccc(Br)cc2)C(C(C)=O)=C1C | – | 5.62 µM [falling, single point]

The list continues.

Structure (SMILES) | AC50 [1] | AC50 [2]
Nc1ccc(S(=O)(=O)Nc2nccs2)cc1 | 35.5 µM [falling, partial curve, poor fit] | 35.5 µM [falling, single point]
O=C(COC(=O)/C(=C/c1cccs1)c1cccs1)NCc1ccccc1Cl | 11.2 µM [rising, single point] | –
Cc1ccc2cc3c(N)[nH]nc3nc2c1 | 10 µM [falling, single point] | 3.98 µM [falling, full curve, poor fit]
Cc1ccc(NC(=O)COC(=O)c2ccccc2-c2nc3ccccc3s2)c(C)c1 | 35.5 µM [rising, single point] | 35.5 µM [rising, single point]
COc1ccccc1-n1cnc2cc(NS(=O)(=O)c3ccc(Br)cc3)ccc21 | 22.4 µM [rising, single point] | 28.2 µM [rising, single point]
Cc1ccc(C)c(N2CCN(C(=O)CCn3c(=O)[nH]c4ccccc4c3=O)CC2)c1 | 0.631 µM [falling, single point] | –
Cc1cccc(OCCSc2nc3ccc(NC(=O)COc4ccccc4F)cc3s2)c1 | – | 1 µM [falling, full curve, poor fit]
CCCCCC(=O)NNC1=NCC(Cc2cccc(Cl)c2)S1 (stereo not given) | – | 20 µM [falling, single point]
C/C(=N/OCc1ccc(Br)cc1)c1ccccn1 | 0.447 µM [falling, partial curve, poor fit] | –
Cc1nn(CCCC(=O)Nc2cccnc2Cl)c(C)c1[N+](=O)[O-] | 0.00316 µM [rising, full curve, poor fit] | –
COC(=O)C1=C(C)N=C2SC(C)C(=O)N2C1/C=C/c1ccccc1OC (stereo not given) | 35.5 µM [rising, single point] | 15.8 µM [rising, single point]
CC(CNC(=O)c1ccc2c(c1)nc1n2CCOC1)c1ccccc1 (stereo not given) | 35.5 µM [rising, single point] | 0.126 µM [rising, full curve, poor fit]
Cc1ccc(-c2nnc(N3CCN(c4ccccn4)CC3)c3ccccc23)cc1 | 35.5 µM [falling, single point] | 35.5 µM [falling, single point]
Nc1c2c(nc3ccccc13)N(C1CCCCC1)CC2 | 11.2 µM [rising, partial curve] | –
O=C(c1cccs1)n1nc(NCc2ccccc2)nc1NCc1ccccc1 | 17.8 µM [rising, single point] | 31.6 µM [rising, single point]
Cc1ccc2c(c1)c1c3n2CCCN(Cc2ccccc2)C3CCC1 (stereo not given) | – | 0.02 µM [falling, full curve, poor fit]
COc1ccc(/C=C/C(=O)Nc2ccc(OC)nc2)cc1 | 22.4 µM [rising, partial curve] | 12.6 µM [rising, partial curve]
COc1cc(/C=C(\C#N)C(=O)Nc2cccc3ncccc23)cc(OC)c1OC | 25.1 µM [rising, single point] | –
Cc1ccc(-c2nnc(NCc3nc4ccccc4[nH]3)c3ccccc23)cc1S(=O)(=O)N1CCOCC1 | 25.1 µM [rising, single point] | 35.5 µM [rising, single point]

Structure (SMILES) | AC50 [1] | AC50 [2]
Cc1ccc(NC(=S)NCCc2ccccc2)c(C)c1 | 22.4 µM [rising, single point] | 11.2 µM [rising, partial curve]
Cc1ccc(Sc2ncnc(N)c2[N+](=O)[O-])cc1 | 7.94 µM [rising, partial curve] | –
S=c1[nH]nc(C2CCCCC2)o1 | 11.2 µM [falling, partial curve] | –
O=C(N/N=C\c1cc(Br)cs1)C1COc2ccccc2O1 (stereo not given) | 25.1 µM [rising, partial curve] | –
CCCCOc1ccc(CSc2n[nH]c(C)n2)cc1 | 5.62 µM [rising, partial curve] | –
COc1cccc(/C=C/C(=O)OCC(=O)c2c[nH]c3ccccc23)c1OC | 0.01 µM [rising, full curve, poor fit] | –
c1ccc2sc(N3CCN(Cc4nnnn4CC4CCCO4)CC3)nc2c1 (stereo not given) | 15.8 µM [rising, single point] | 11.2 µM [rising, partial curve]
O=[N+]([O-])c1ccc(Cl)c(C2Nc3cccc4cccc(c34)N2)c1 | – | 35.5 µM [falling, single point]
CCOc1ccccc1CNC(=O)C1CCN(C(=O)c2sccc2-n2cccc2)CC1 | 15.8 µM [rising, single point] | 14.1 µM [rising, single point]
O=C(/C=C/c1ccccc1)c1ccc2c(c1)OCCCCO2 | 12.6 µM [falling, partial curve] | 12.6 µM [falling, partial curve]
O=C(Nc1ncc(Cc2ccccc2Cl)s1)C1=NCCN1 | 22.4 µM [rising, single point] | –
O=C(CSc1nc2ccccc2o1)Nc1ccc(N2CCOCC2)c(Cl)c1 | 17.8 µM [rising, single point] | 11.2 µM [rising, single point]
CCCCN(C)C(=O)c1cc2cc3ccc(OC)cc3nc2s1 | 31.6 µM [rising, single point] | –
Cc1cc(SCC(=O)Nc2cccnc2Cl)nc2ccccc12 | 0.158 µM [rising, full curve, poor fit] | 0.251 µM [rising, full curve]
CCN(CC)c1ccc(NS(=O)(=O)c2ccc(-c3coc(C)n3)cc2)c(C)c1 | 0.126 µM [falling, partial curve, poor fit] | 0.2 µM [falling, full curve, poor fit]
CC(C)Oc1ccc(Br)cc1/C=N\NC(N)=S | 15.8 µM [rising, partial curve] | 14.1 µM [rising, partial curve]
O=C(NCc1ccc2c(c1)CCN2C(=O)c1ccc(Cl)cc1)c1ccco1 | 15.8 µM [falling, single point] | –
CCN1CCN(CCNC(=O)c2ccc(/C=C3/Sc4ccccc4N(Cc4ccccc4C)C3=O)cc2)CC1 | 25.1 µM [falling, partial curve, poor fit] | –
